Experimental data taken from article PMC3536697.

Chains of the proteins cited; added tags and fusions are not shown. Lines headed by an entry give the natural chain unless they say otherwise; changes in a name come on top.
UniProt Q5AB98: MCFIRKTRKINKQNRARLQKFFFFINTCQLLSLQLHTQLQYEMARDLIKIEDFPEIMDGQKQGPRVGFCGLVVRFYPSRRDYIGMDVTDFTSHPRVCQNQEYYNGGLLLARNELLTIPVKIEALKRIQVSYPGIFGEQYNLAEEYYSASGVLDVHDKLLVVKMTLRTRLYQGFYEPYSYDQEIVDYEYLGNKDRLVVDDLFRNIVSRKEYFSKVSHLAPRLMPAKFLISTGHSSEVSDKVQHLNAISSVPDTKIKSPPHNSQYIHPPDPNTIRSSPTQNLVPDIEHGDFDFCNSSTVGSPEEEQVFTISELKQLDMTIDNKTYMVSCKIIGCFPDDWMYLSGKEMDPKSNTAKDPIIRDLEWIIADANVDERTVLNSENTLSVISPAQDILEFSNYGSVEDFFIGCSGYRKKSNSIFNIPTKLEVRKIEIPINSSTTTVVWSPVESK
UniProt A0A1D8PI83: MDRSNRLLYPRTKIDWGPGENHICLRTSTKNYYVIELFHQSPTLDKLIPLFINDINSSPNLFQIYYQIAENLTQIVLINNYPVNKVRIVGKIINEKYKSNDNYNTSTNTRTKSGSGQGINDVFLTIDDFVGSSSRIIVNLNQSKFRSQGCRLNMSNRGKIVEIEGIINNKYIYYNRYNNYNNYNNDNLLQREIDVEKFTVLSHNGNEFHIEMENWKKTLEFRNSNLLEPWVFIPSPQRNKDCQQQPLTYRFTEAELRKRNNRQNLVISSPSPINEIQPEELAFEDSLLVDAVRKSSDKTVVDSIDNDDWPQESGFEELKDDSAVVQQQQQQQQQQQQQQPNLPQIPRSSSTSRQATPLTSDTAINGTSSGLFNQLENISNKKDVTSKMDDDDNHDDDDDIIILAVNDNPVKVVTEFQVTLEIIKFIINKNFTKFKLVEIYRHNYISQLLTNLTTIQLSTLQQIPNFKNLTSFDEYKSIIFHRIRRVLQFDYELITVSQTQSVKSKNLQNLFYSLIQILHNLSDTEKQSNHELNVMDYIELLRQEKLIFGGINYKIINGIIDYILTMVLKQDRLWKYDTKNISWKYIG

Biological target: GST-CaCdc13-FG fusion protein (Candida albicans Cdc13) (Candida albicans) (UniProt Q5AB98)
Assay: co-IP; extracts of E. coli expressing HIS6-SUMO-CaStn1 (wild type or K98E/K170E) alone or with GST-CaCdc13-FG, M2 affinity purification; Coomassie and Western (anti-FLAG, anti-HIS6)

HIS6-SUMO-CaStn1 fusion protein (Candida albicans Stn1), wild type (from UniProt A0A1D8PI83 1-587)
binding: binds

Results are given in words; binding and its absence hold for the method and conditions named. In cells and extracts the contact can be indirect. A result given as binding can be weak or reduced; the word gives no strength.
